This passage reports binding results from patent publication US6632625 (MERCK, dated 2003).

The chains behind the UniProt entries cited, without tags or fusion partners. Where a name states a change or a piece, a line headed by the entry shows the natural chain unless it says otherwise. Residues count along the entry.
UniProt P48357, residues 23-866: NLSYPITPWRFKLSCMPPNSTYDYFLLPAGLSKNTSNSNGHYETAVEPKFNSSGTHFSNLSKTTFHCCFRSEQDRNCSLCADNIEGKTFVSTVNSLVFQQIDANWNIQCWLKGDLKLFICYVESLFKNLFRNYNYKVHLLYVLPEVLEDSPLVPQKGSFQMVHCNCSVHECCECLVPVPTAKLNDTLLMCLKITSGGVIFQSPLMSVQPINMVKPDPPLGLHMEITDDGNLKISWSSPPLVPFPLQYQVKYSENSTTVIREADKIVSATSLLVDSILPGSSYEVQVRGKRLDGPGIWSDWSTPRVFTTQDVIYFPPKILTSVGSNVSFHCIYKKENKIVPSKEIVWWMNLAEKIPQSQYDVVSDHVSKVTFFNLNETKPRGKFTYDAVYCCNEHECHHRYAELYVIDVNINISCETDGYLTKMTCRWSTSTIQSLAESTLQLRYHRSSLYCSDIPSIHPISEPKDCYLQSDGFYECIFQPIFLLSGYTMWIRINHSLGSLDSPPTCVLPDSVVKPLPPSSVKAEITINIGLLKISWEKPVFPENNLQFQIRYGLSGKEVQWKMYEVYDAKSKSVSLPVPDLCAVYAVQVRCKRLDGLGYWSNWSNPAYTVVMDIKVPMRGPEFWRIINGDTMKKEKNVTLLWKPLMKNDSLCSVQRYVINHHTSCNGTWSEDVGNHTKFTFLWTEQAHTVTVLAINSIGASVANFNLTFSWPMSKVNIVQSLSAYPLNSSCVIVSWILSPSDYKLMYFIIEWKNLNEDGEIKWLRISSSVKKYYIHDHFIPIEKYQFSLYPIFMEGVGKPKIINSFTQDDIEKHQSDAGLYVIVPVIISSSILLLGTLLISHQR
UniProt P41159, residues 22-167: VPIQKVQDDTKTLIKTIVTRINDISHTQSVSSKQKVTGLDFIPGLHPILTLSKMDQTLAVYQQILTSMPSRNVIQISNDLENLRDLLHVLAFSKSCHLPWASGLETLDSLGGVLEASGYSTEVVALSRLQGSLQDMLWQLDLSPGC

These are yes or no findings as the source states them, for the method shown. Some binding calls cover weakened binding; strength is not graded here.

This test addresses deletion mutant D(867-1165) of the human OB-R (human) (UniProt P48357). Kind of test: leptin binding on transfected COS cells.

Consider “recombinant human leptin (from UniProt P41159 22-167) (ligand)”, for which the binding result is “binds”.
